Measured values reported in publication PMC7545994.
These are yes or no findings as the source states them, for the method shown. Binding seen in cells or lysates may run through a third protein. Some binding calls cover weakened binding; strength is not graded here. Where a sequence is shown, tags or fusion partners need not be part of it.

Molecular target: T1, TAB2-Myc (UniProt Q9NYJ8)
T1 sequence: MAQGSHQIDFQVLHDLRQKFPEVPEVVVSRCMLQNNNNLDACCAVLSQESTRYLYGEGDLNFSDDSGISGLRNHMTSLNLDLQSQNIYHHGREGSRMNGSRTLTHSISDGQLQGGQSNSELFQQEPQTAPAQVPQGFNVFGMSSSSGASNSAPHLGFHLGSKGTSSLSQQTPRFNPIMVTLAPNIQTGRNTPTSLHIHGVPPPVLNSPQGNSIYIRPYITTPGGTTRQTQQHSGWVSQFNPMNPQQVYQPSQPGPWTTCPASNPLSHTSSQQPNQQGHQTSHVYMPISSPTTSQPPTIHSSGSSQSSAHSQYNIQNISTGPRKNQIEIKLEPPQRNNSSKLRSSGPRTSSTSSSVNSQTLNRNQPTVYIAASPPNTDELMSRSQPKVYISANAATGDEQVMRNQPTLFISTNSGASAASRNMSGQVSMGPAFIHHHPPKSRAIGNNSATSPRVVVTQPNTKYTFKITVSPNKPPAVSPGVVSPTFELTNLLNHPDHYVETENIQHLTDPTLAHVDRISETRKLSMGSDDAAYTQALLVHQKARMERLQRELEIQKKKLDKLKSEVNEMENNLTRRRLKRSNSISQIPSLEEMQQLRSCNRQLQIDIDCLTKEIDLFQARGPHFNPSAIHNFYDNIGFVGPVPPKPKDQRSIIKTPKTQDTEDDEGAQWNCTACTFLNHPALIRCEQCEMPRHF
Test: co-IP; 293T-tet-CLU cells co-transfected with tagged proteins, with or without Dox-induced CLU; IP with Myc or Flag antibody, western blot with tag and CLU antibodies

B1: TAK1-Flag (enzyme, UniProt O43318 1-606)
chain: MSTASAASSSSSSSAGEMIEAPSQVLNFEEIDYKEIEVEEVVGRGAFGVVCKAKWRAKDVAIKQIESESERKAFIVELRQLSRVNHPNIVKLYGACLNPVCLVMEYAEGGSLYNVLHGAEPLPYYTAAHAMSWCLQCSQGVAYLHSMQPKALIHRDLKPPNLLLVAGGTVLKICDFGTACDIQTHMTNNKGSAAWMAPEVFEGSNYSEKCDVFSWGIILWEVITRRKPFDEIGGPAFRIMWAVHNGTRPPLIKNLPKPIESLMTRCWSKDPSQRPSMEEIVKIMTHLMRYFPGADEPLQYPCQYSDEGQSNSATSTGSFMDIASTNTSNKSDTNMEQVPATNDTIKRLESKLLKNQAKQQSESGRLSLGASRGSSVESLPPTSEGKRMSADMSEIEARIAATTAYSKPKRGHRKTASFGNILDVPEIVISGNGQPRRRSIQDLTVTGTEPGQVSSRSSSPSVRMITTSGPTSEKPTRSHPWTPDDSTDTNGSDNSIPMAYLTLDHQLQPLAPCPNSKESMAVFEQHCKMAQEYMKVQTEIALLLQRKQELVAELDQDEKDQQNTSRLVQEHKKLLDENKSLSTYYQQCKKQLEVIRSQQQKRQGTS
B1 was tested, and the binding was “binds”.
